# Measured data: PubChem BioAssay AID1224830 (NIAID, 2016)
# Purpose: 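Genes whose knock-down alters the TNF-alpha reporter response to LPS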 (primary screen)
# Cell system: human THP-1 monocytic leukaemia cells, TNF dual-luciferase reporter clone, PMA-differentiated to macrophage-like cells
# Knock-down reagent: siRNA pool against human genes, 50 nM
# Time to read-out: LPS for 4 h, given about 3 days after siRNA transfection
# Conditions: bacterial LPS (TLR4 ligand), 10 ng/ml
# Detection: 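Ratio of firefly to renilla light, scaled to the plate median and expressed as a robust z-score per replicate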
# Scale: TNF reporter robust z-score: higher = stronger TNF reporter response to LPS
# Active means: 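Each well counts as active if its z-score is over 2.8 or under -1.5; controls are left without a call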
# The whole screen tested about 18,000 reagents; this is a part drawn at random. Over the whole deposit, about 2,900 (16%) are marked active. 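Calls are made per well; low scores hint the gene aids the LPS response, high scores that it dampens it.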 A number with no mark means an inactive call. Repeated entries: four replicate wells of each siRNA pool.
Target gene,TNF reporter robust z-score
HTN3,-0.82
HTN3,1.02
HTN3,-0.48
HTN3,0.68
TNFSF12,-0.38
TNFSF12,0.05
TNFSF12,-0.29
TNFSF12,0.19
OR52K2,-0.4
OR52K2,-0.87
OR52K2,-1.05
OR52K2,-1.09
SGSM2,0.65
SGSM2,1.07
SGSM2,2.2
SGSM2,5.55 (active)
OPLAH,0.73
OPLAH,0.18
OPLAH,0.4
OPLAH,-0.43
ABHD4,1.25
ABHD4,0.65
ABHD4,-0.83
ABHD4,0.62
SERTAD4,-1.04
SERTAD4,0.19
SERTAD4,-1.23
SERTAD4,-0.91
LY6K,0.42
LY6K,1.78
LY6K,0.13
LY6K,-1.38
LMBRD2,0.04
LMBRD2,-0.8
LMBRD2,0.21
LMBRD2,-1.06
OR51G1,0.71
OR51G1,1
OR51G1,1.09
OR51G1,2.42
ATP11A,0.03
ATP11A,0.58
ATP11A,-0.31
ATP11A,1.29
ALG1L1P,0.66
ALG1L1P,1.09
ALG1L1P,-0.51
ALG1L1P,0.24
WNT2,0.19
WNT2,-0.11
WNT2,-0.22
WNT2,-0.02
RAMP3,-0.25
RAMP3,0.46
RAMP3,-0.37
RAMP3,-0.08
PPP1R8,-1.3
PPP1R8,-1
PPP1R8,-1.16
PPP1R8,-0.09
SLC25A35,-0.77
SLC25A35,-0.8
SLC25A35,-1.09
SLC25A35,-0.82
VIP,1.85
VIP,2
VIP,0.45
VIP,1.16
TEX35,-0.66
TEX35,-0.26
TEX35,-1.28
TEX35,-0.35
ZSCAN18,0.36
ZSCAN18,-0.07
ZSCAN18,-0.24
ZSCAN18,-0.39
RCSD1,-1.59 (active)
RCSD1,-1.19
RCSD1,-1.58 (active)
RCSD1,-1.15
TSFM,0.46
TSFM,-0.46
TSFM,0.71
TSFM,-0.05
DACH2,-0.44
DACH2,-0.69
DACH2,-0.85
DACH2,-0.21
TNP1,-0.91
TNP1,-0.89
TNP1,-1.5
TNP1,-0.82
ITIH2,-0.56
ITIH2,0.19
ITIH2,0.64
ITIH2,0.54
RNASE1,-1.33
RNASE1,-1.31
RNASE1,-1.42
RNASE1,-0.8
DND1,4.91 (active)
DND1,3.23 (active)
DND1,2.91 (active)
DND1,5.22 (active)
ZNF236,1.93
ZNF236,2.6
ZNF236,2.86 (active)
ZNF236,0.57
RELB,-0.53
RELB,-0.9
RELB,-0.87
RELB,-0.46
